Measurements as given in US6063587A, “Water-soluble tetrazolium salt compounds” (Dojindo Laboratories Co., Ltd., priority 1996, dated 2000).

Assay: Measurement of NADH concentration (absorbance calibration curve)
Settings: 0.1 mM compound, 5 μM 1-methoxy-5-methylphenazinium methosulfate, 5 minutes

Structure (SMILES): O=[N+]([O-])c1ccc(-n2nc(-c3ccc(S(=O)(=O)O)cc3S(=O)(=O)[O-])n[n+]2-c2ccc(I)cc2)c([N+](=O)[O-])c1 [Compound b]
- calibration curve between NADH concentration and absorbance (50 mM Tris pH 8.0, 0-50 μl of 5 mM NADH, room temperature): linear calibration curve between NADH concentration and absorbance starting from the origin
- detection sensitivity for NADH (Compound a versus Compound b) (50 mM Tris pH 8.0, room temperature): almost the same detection sensitivity
